We go through one compound from US9822136B2, “Chemical inhibitors of sebocyte function” (priority 2016, dated 2017).

A short description of the series: Skin temperature of human forehead after topical application. It counts as in vivo. The settings on record: for Skin temperature of human forehead: 1-7 20 mg/mL.

With `CCCCCCCP(=O)(C(C)C)C(C)C` [Code 1-7, 1-diisopropylphosphorylheptane], the “Skin temperature of human forehead” value (0 min) amounted to 37.4 °C; the “Skin temperature of human forehead” value (15 min) was found to be 37.5 °C; the “Skin temperature of human forehead” value (30 min) amounted to 37.1 °C; the “Skin temperature of human forehead” value (45 min) is 37.2 °C; the “Skin temperature of human forehead” value (60 min) came to 37.1 °C; the “Skin temperature of human forehead” value (Before) turned out to be 37.4 °C. For the same compound, where the note is “forehead, 20 mg/mL”, the “Effect on skin temperature” value was “not affected”.
